We go through five molecules from paper doi:10.1101/2022.11.21.517456.

Sequences of proteins named here, by UniProt entry; tags and fusion partners are left off.
UniProt O14980: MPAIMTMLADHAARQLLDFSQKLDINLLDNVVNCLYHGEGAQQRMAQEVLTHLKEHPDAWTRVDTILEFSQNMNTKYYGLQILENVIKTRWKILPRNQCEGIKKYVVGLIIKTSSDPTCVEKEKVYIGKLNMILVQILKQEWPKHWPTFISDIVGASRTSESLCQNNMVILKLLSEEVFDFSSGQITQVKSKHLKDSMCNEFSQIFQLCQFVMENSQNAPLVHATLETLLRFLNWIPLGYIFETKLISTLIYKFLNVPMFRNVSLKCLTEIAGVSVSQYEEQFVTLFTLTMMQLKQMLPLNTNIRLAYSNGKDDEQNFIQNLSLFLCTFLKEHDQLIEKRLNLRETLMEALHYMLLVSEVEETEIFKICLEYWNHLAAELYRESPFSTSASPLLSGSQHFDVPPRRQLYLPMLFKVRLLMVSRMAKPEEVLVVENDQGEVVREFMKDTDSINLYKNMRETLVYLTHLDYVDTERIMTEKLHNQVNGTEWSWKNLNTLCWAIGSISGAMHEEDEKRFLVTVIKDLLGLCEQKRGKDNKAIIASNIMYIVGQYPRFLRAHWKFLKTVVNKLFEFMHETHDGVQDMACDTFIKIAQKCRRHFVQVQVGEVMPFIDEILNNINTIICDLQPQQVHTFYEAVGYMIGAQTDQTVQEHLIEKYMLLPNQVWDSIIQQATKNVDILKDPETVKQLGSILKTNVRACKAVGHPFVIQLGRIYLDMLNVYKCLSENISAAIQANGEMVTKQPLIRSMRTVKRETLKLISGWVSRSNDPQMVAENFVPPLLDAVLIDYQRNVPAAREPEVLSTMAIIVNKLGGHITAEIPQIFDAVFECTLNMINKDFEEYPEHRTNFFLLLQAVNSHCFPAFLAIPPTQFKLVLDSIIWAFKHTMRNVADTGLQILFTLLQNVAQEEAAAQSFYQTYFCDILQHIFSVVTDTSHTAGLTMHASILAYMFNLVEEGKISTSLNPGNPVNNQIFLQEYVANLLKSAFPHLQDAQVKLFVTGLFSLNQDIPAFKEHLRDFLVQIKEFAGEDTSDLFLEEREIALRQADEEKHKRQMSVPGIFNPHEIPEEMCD

Assay [1] addresses T1, SFB-YTHDF1-WT (UniProt Q9BYJ9).
T1 sequence: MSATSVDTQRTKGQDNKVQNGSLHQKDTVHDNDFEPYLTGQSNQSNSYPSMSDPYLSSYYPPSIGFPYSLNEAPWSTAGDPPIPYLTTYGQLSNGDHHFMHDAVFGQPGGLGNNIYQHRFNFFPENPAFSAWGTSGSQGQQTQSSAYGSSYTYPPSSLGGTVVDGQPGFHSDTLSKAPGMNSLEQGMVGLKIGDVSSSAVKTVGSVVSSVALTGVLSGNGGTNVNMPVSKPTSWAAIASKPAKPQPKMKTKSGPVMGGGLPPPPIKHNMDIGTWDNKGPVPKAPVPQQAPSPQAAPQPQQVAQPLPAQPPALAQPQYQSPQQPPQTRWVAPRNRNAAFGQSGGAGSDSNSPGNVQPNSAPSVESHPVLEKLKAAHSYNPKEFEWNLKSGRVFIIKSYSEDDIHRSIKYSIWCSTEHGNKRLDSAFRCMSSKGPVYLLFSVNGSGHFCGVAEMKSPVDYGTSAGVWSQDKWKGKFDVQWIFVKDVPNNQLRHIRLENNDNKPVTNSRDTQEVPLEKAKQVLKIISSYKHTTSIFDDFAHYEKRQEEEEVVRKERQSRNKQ
As to the kind of experiment: co-IP.

The target of assay [2] is T2, endogenous YTHDF1 (human (endogenous in HeLa)) (UniProt Q9BYJ9).
T2 sequence: T1 sequence
As to the kind of experiment: co-IP.

For assay [3], the target named is T3, Flag-YTHDF1 (UniProt Q9BYJ9).
T3 sequence: T1 sequence
Briefly: co-IP.

In assay [4] the target is T4, recombinant GST-YTHDF1 (UniProt Q9BYJ9).
T4 sequence: T1 sequence
As to the kind of experiment: pull-down.

For assay [5], the target named is T5, endogenous OGT (human (endogenous in HeLa)) (UniProt O15294).
T5 sequence: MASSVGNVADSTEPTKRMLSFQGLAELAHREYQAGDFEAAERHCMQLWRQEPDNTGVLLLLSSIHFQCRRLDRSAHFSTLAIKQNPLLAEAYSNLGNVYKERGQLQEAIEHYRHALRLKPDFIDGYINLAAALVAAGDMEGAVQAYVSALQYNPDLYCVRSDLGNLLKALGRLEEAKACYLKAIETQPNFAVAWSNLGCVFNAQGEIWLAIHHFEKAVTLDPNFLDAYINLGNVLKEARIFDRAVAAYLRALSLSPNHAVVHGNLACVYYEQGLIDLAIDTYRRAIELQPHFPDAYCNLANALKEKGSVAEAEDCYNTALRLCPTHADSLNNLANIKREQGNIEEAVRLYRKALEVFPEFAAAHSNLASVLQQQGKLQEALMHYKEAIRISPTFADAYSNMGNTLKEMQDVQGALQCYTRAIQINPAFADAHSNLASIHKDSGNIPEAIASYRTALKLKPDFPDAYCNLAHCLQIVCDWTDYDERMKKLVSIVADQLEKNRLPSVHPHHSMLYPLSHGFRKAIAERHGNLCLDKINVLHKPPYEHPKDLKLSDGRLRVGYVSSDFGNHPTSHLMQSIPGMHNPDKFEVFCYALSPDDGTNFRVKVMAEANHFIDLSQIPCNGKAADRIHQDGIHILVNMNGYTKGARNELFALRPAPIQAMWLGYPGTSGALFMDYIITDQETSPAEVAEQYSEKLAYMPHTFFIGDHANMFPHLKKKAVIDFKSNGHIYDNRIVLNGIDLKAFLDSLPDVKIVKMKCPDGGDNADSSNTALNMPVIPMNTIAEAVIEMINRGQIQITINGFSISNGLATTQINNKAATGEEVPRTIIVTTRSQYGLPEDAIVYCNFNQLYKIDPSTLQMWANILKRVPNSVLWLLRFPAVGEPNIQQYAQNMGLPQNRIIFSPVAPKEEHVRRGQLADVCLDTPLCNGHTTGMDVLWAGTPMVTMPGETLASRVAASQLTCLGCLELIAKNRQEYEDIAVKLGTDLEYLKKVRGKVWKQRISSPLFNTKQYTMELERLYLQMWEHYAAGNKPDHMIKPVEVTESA
As to the kind of experiment: co-IP.

No constants are given. Whether binding was seen depends on the method and setting. In cells and extracts the contact can be indirect. Some results given as binding are weak or reduced against the parent protein; the word gives no strength. For part of these data: Tags and fused reporters may be left off the sequences shown.

For the molecule HA-CRM1 (from UniProt O14980 1-1071), in assay [1], the binding result was “binds”.

As for “endogenous Crm1 (from UniProt O14980 1-1071)”, the binding entry in assay [2] is reported as “binds”.

B1: HA-OGT (enzyme, UniProt O15294 1-1046)
chain: T5 sequence
For the molecule B1, the binding entry in assay [3] and in assay [4] was “binds” in each case.

B2: recombinant His-OGT (enzyme, UniProt O15294 1-1046)
chain: T5 sequence
Regarding B2, in assay [4], the binding result is on record as “binds”.

B3: endogenous YTHDF1 (protein, UniProt Q9BYJ9 1-559)
chain: T1 sequence
As for B3, the binding result in assay [5] was “binds”.
